Assay: general procedure: solution-phase peptide synthesis; isobutylchloroformate / N-methylmorpholine (mixed anhydride)

| Substance | step yield (coupling step) [%] | further results |
| --- | --- | --- |
| 1,1,1-Trifluoro-3-[(N-acetylprolyl)alanylprolylamino]butan-2-ol | 23 | – |
| 1,1,1-Trifluoro-3-[(N-tert-butyloxycarbonylalanyl)alanylprolylamino]-4-methylpentan-2-ol | 76 | – |
| 1,1,1-Trifluoro-3-[alanyl-alanylprolylamino]-4-methylpentan-2-one | – | step yield (late stage modification step): 96% |
| 3-[(N-acetylprolyl)alanylprolylamino]-2-hydroxybutanoic acid, methyl ester | 36 | – |
| 4-[Methoxysuccinyl-L-alanyl-L-alanyl-L-prolyl]amino 2,2-difluoro 5-methyl 3-oxo hexanoic acid, ethyl ester | – | step yield (late stage modification step): 65% |
| 4-[methoxysuccinyl L-alanyl-L-alanyl-L-prolyl]amino 2,2-difluoro 3-hydroxy 5-methyl hexenoic acid, ethyl ester | 85 | – |
| Dansyl peptide 1,1,1-Trifluoro-3-(alanylalanylprolylamino)-4-methylpentan-2-one | – | conjugation yield (conjugation step): 68% |
